# Source: PubChem BioAssay AID504444 (National Center for Advancing Translational Sciences (NCATS), 2011)
# About 7,500 (2.1%) of roughly 360,000 compounds were called active. Inconclusive means that the source gave no clear call. Such entries were picked first, then a sample of the others. The call rests on the fitted dose curve; in most records, active means well fitted inhibition curve with a large enough effect; inconclusive means small, poorly fitted or top-dose-only effect, or effect the other way; inactive means flat fitted curve, though single readings scatter. Where the call is inconclusive, the potency comes from a doubtful curve fit.
# Experiment: Nrf2 qHTS screen for inhibitors; further: nearly all actives have a fitted effect of over 60% in size
# Settings: A549 ARE-Fluc reporter, luciferase luminescence, 18-24 h; series mostly up to 46 µM
# In short: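 A549 ARE_Fluc cells, 5000/well, 5% FBS OPTI-MEM; compounds in dose-response, 18-24 h at 37 °C/5% CO2; CellTiter-Fluor viability read (Ex 405/Em 525), then BugLite luciferase luminescence = Nrf2 activity.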
# Potency means the concentration at half of the fitted maximal effect.
row,SMILES,Potency
1,O=C(N/N=C/c1ccc(N2CCCCC2)o1)c1ccccc1,inactive
2,CC(C)c1ccc(NC(=O)NCc2cccnc2)cc1,inactive
3,COc1ccc(C(O)(c2ccccc2OC)C(CN2CCOCC2)c2ccccc2)cc1 (stereo unspecified),"inconclusive: 20.6 µM [falling, partial curve, poor fit]"
4,Cc1ccc(C(=O)NC(=S)NNC(=O)CCN2CCOCC2)cc1,"inconclusive: 9.2 µM [falling, partial curve, poor fit]"
5,N#Cc1cn(Cc2cccc(Cl)c2)c2ccccc12,"inconclusive: 29.1 µM [falling, single point]"
6,COc1ccc2c(c1OC)C(=O)N1C(C(=O)O)Cc3c([nH]c4ccccc34)C21 (stereo unspecified),"inconclusive: 13 µM [activator, partial curve, poor fit]"
7,O=C1NC(=O)c2cc(Br)cc3cccc1c23,"inconclusive: 4.11 µM [falling, partial curve, poor fit]"
8,Cc1ccc(NC(=O)CN2C(=O)c3cccnc3Sc3ccccc32)cc1C,"inconclusive: 4.11 µM [falling, full curve]"
9,O=C(COc1cc2oc(=O)c3c(c2cc1Cl)CCC3)NCCCN1CCCC1=O,"inconclusive: 23.1 µM [falling, single point]"
10,COc1ccc(S(=O)(=O)N(C(=O)C(C)C)c2ccc3oc(=O)sc3c2)cc1,"inconclusive: 16.4 µM [falling, single point]"
11,Cc1nc2sc(C)c(C)n2c(=O)c1S(=O)(=O)N1CCN(c2ccccc2F)CC1,"inconclusive: 29.1 µM [falling, single point]"
12,COc1cc(/C=N/N(c2ccccc2)c2ccccc2)ccc1O,inactive
13,CS(=O)(=O)N1CCc2cc(C(=O)OCC(=O)c3ccccc3)ccc21,"inconclusive: 11.6 µM [activator, partial curve]"
14,Cc1ccc2c(Sc3ccc(Cl)cc3)c(C(=O)NCCC(C)C)[nH]c2c1,"inconclusive: 29.1 µM [falling, single point]"
15,CC[C@@H]1CC=C[C@H]2[C@H]1C(=O)N(Cc1ccccc1)[C@H]2c1ccc(OC)c(Cl)c1,"inconclusive: 25.9 µM [falling, partial curve, poor fit]"
16,C=CCn1c(SCC(=O)N2CCN(C(=O)c3ccco3)CC2)nc2sc(CC)cc2c1=O,"inconclusive: 32.6 µM [falling, single point]"
17,C=Cc1ncc(OC)c2c1[nH]c1ccccc12,"inconclusive: 18.4 µM [falling, partial curve]"
18,CCn1c(SCc2nc3ccccc3c(=O)[nH]2)nc2ccccc2c1=O,"inconclusive: 13 µM [falling, partial curve, poor fit]"
19,COc1cc(/C=N/NC(=O)c2sc(N)c(C#N)c2C)ccc1O,"inconclusive: 16.4 µM [falling, single point]"
20,CSc1nc(N)nc2c1ncn2CC(=O)N[C@H](C)c1cccc2ccccc12,"inconclusive: 29.1 µM [falling, single point]"
21,CC(=O)c1cccc(NS(=O)(=O)c2ccc3c(c2)N(C(C)=O)CCO3)c1,"inconclusive: 23.1 µM [falling, partial curve]"
22,Cc1cccc(N2CCN(C(=O)c3ccc4nc(N5CCC(C)CC5)sc4c3)CC2)c1C,"inconclusive: 0.82 µM [activator, full curve]"

row,SMILES,Potency
1,O=[N+]([O-])c1ccc(Sc2cccc[n+]2[O-])c2nonc12,"inconclusive: 18.4 µM [falling, single point]"
2,COc1ccc(CNc2nc(NCc3ccc(OC)cc3)c3ncn(C4CCCC4)c3n2)cc1,"inconclusive: 29.1 µM [falling, single point]"
3,COc1cc(C(=O)N2CCC(C(=O)Nc3cccc(C(C)=O)c3)CC2)cc(OC)c1OC,"inconclusive: 1.64 µM [activator, full curve, poor fit]"
4,Cc1ccc(NC(=O)c2ccc3c(c2)OCCO3)nc1,"inconclusive: 0.731 µM [activator, partial curve, poor fit]"
5,CNC(=O)COC(=O)c1cc(-c2ccc(OC)cc2)nc2ccccc12,"inconclusive: 25.9 µM [falling, single point]"
6,COc1ccc(CCNC(=O)c2ccc(SC)cc2OC)cc1,inactive
7,O=[N+]([O-])c1nn(-c2ccc3c(c2)OCCO3)n(O)c1=NCc1ccc(F)cc1Cl,"inconclusive: 2.91 µM [activator, full curve]"
8,COc1cc2ccccc2cc1C(=O)N1CC(C)CC(C)C1 (stereo unspecified),active: 11.6 µM
9,CC(C)CCNC(=O)Cn1c(=O)oc2cc(S(=O)(=O)N3CC(C)CC(C)C3)ccc21 (stereo unspecified),"inconclusive: 29.1 µM [falling, single point]"
10,O=C(c1cccc(S(=O)(=O)NCc2ccccc2)c1)N1CCN(c2ccc(F)cc2)CC1,"inconclusive: 29.1 µM [falling, single point]"
11,O=S1(=O)N=C(Sc2cccc3cccnc23)c2ccccc21,"inconclusive: 29.1 µM [activator, single point]"
12,CCOC(=O)c1c(N)n(-c2ccc(N)cc2)c2nc3ccccc3nc12,inactive
13,Cc1cc(C)nc(OC(C(=O)O)C(OCc2ccccc2)(c2ccccc2)c2ccccc2)n1 (stereo unspecified),"inconclusive: 29.1 µM [falling, single point]"
14,Cc1onc(-c2ccccc2)c1C(=O)N/N=C/c1ccco1,inactive
15,N/C(=N\OC(=O)c1ccccc1Cl)c1ccncc1,"inconclusive: 11.6 µM [activator, partial curve]"
16,COCCCNC(=O)C1CCCN(S(=O)(=O)c2cccc3nsnc23)C1 (stereo unspecified),"inconclusive: 0.164 µM [activator, full curve, poor fit]"
17,O=S(=O)(c1ccc2c(c1)OCCO2)N1CCN(c2nc3ccccc3s2)CC1,"inconclusive: 18.4 µM [falling, single point]"
18,O=C(CSc1nnc(-c2csc3c2CCCC3)o1)Nc1ccccc1,"inconclusive: 0.58 µM [activator, full curve, poor fit]"
19,CC(O)CNCCCOc1ccc(Cl)cc1C(C)(C)C (stereo unspecified),inactive
20,O=C(O)c1ccc(N/N=C/c2cccc(C(F)(F)F)c2)cc1,"inconclusive: 3.66 µM [activator, full curve]"
21,CN(Cc1ccccc1)c1ccc2cc(S(=O)(=O)N3CCCCC3)ccc2n1,"inconclusive: 7.31 µM [falling, partial curve, poor fit]"
22,CC(=O)O/N=C/c1c(N2CCOCC2)n(C)c2ccccc12,active: 6.51 µM

# Single values from above.
# Under Potency, Cc1nc2sc(C)c(C)n2c(=O)c1S(=O)(=O)N1CCN(c2ccccc2F)CC1 shows inconclusive: 29.1 µM [falling, single point]
# Under Potency, C=CCn1c(SCC(=O)N2CCN(C(=O)c3ccco3)CC2)nc2sc(CC)cc2c1=O shows inconclusive: 32.6 µM [falling, single point]
# Under Potency, O=C(COc1cc2oc(=O)c3c(c2cc1Cl)CCC3)NCCCN1CCCC1=O shows inconclusive: 23.1 µM [falling, single point]

# Next results

row,SMILES,Potency
1,Cc1nc(Nc2nc3ccccc3o2)nc(C)c1C,"inconclusive: 6.51 µM [activator, partial curve]"
2,COc1ccc2cc(-c3nc(-c4ccc(N(C)C)cc4)no3)c(=O)oc2c1,"inconclusive: 23.1 µM [activator, partial curve, poor fit]"
3,Oc1ccccc1/C=N/NC(=S)NC1CC2CC1C1C=CCC21 (stereo unspecified),inactive
4,O=C(Nc1nc(-c2ccccc2)nc2ccccc12)c1ccc(F)cc1,"inconclusive: 32.6 µM [falling, single point]"
5,Clc1ccc(OCCCCN2CCCCC2)cc1,inactive
6,Cc1ccc(S(=O)(=O)Nc2ccc(-c3nnc(SCC#N)n3C)cc2)cc1,"inconclusive: 14.6 µM [falling, single point]"
7,O=C(COc1ccccc1[N+](=O)[O-])Nc1ccc2c(c1)CCC2,"inconclusive: 23.1 µM [activator, partial curve]"
8,O=C(Nc1ccccc1Cl)C1CCCN(c2ncnc3c2nc2n3CCCCC2)C1 (stereo unspecified),"inconclusive: 25.9 µM [falling, single point]"
9,CC(C)=C1SC(N2CCN(c3cccc(C)c3)CC2)=NC1=O,active: 23.1 µM
10,CC(C)C[C@H](NC(=O)c1nc[nH]c1C(=O)NC(c1ccccc1)c1ccccc1)C(=O)OC(C)(C)C,"inconclusive: 23.1 µM [falling, single point]"
11,Cc1ncc(CO)c(/C=N/NC(=S)Nc2ccc(Cl)c(Cl)c2)c1O,"inconclusive: 18.4 µM [falling, partial curve, poor fit]"
12,O=S(Cc1ccc(Br)cc1)Cc1nnc(SCc2ccc(Cl)cc2)n1-c1ccccc1 (stereo unspecified),active: 16.4 µM
13,CCOc1cc(-c2cc(-c3ccc(C)o3)nc(N)c2C#N)ccc1O,active: 14.6 µM
14,O=C(CSc1nc2ccccc2c(=O)[nH]1)Nc1ccc(N2CCOCC2)c(Cl)c1,"inconclusive: 25.9 µM [falling, single point]"
15,CCCc1cc(=O)oc2cc(C)cc(OCC(=O)NCCCN3CCOCC3)c12,"inconclusive: 4.61 µM [activator, partial curve, poor fit]"
16,CCOc1ccc(CCNC(=O)CCn2c(=O)c3cccn3c3ccc(F)cc32)cc1OCC,inactive
17,CN(C)S(=O)(=O)c1cccc(NC(=O)c2cccc(S(=O)(=O)N3CCCCCC3)c2)c1,"inconclusive: 23.1 µM [falling, partial curve, poor fit]"
18,CCOC(=O)c1[nH]c2ccccc2c1NC(=O)c1ccc(S(=O)(=O)N(C)C)cc1,inactive
19,Cc1nnc(SCC(=O)Nc2cc(S(=O)(=O)N3CCCC3)ccc2Cl)n1C1CC1,"inconclusive: 32.6 µM [falling, single point]"
20,O=C(Nc1cc(S(=O)(=O)Nc2ccc(Cl)cc2)ccc1N1CCCCC1)c1ccc(F)cc1,"inconclusive: 29.1 µM [falling, single point]"
21,CCO[C@@H]1OC(C(=O)O)=C[C@H](c2ccc(Br)cc2)[C@H]1CCCO,inactive
22,COc1ccc(C2Nc3ccccc3C(=O)N2Cc2ccccc2)cc1CSc1ccccn1 (stereo unspecified),inactive
